PubChem BioAssay AID686938 – Drosophila RNAi Screening Center | 2013
The screen tested about 23,000 reagents; below is an unselected part of those with a known target gene and a result. Of all reagents, 75 (0.33%) were called active. 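Raw plate signals without normalisation; calls rest on plate z-scores that were not deposited; ratio present for only 364 wells.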 No sequences are given here. Not stated in the record: the dose of the treatment.

- Assay: 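Looking for CRAC channel components and the factors controlling them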 (primary screen)
- Cells: Drosophila S2R+ cells
- Knock-down reagent: long dsRNA against Drosophila genes, about 0.25 µg dsRNA per well, roughly 10,000 cells
- Time to read-out: 5 days of knock-down before the calcium assay
- Treatment: thapsigargin (SERCA pump blocker) to empty calcium stores; entry signal taken 4 min after adding it
- Measurement: 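Per-well fluo-4 fluorescence in two replicates, unnormalised, measured in resting cells and 4 min after store depletion by the SERCA blocker thapsigargin; ratio of the two present in few wells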
- Scale: calcium entry signal: higher = stronger calcium signal after store depletion; entry to resting ratio: higher = more calcium entry relative to resting level; resting calcium signal: higher = higher resting calcium signal
- Units: calcium entry signal in fluorescence units; resting calcium signal in fluorescence units
- Active means: 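Called when the plate z-score of the entry-to-rest ratio, mean of duplicates, falls below −3; wells with low overall dye signal (Fmax z below −2) or more than five off-targets excluded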
- Calls: active = strongly reduced calcium entry; inactive = no strong reduction

With knock-down of CG12702 [DRSC19487] the results were calcium entry signal, replicate 1 = 5.63e7; calcium entry signal, replicate 2 = 3.35e7; resting calcium signal, replicate 1 = 2.38e7; resting calcium signal, replicate 2 = 1.42e7; inactive.
For Actbeta [DRSC17185] the deposit lists calcium entry signal, replicate 1 = 3.72e7; calcium entry signal, replicate 2 = 3.81e7; resting calcium signal, replicate 1 = 1.93e7; resting calcium signal, replicate 2 = 1.77e7; inactive.
For Actbeta [DRSC17217], the entry reads calcium entry signal, replicate 1 = 4.10e7; calcium entry signal, replicate 2 = 6.35e7; entry to resting ratio 1.9; resting calcium signal, replicate 1 = 2.17e7; resting calcium signal, replicate 2 = 2.59e7; inactive.
For CG14966 [DRSC08425] the deposit lists calcium entry signal, replicate 1 = 3.61e7; calcium entry signal, replicate 2 = 3.00e7; resting calcium signal, replicate 1 = 1.93e7; resting calcium signal, replicate 2 = 1.51e7; inactive.
Depletion of Mzt1 [DRSC07979] came out at: calcium entry signal, replicate 1 = 2.81e7; calcium entry signal, replicate 2 = 4.98e7; resting calcium signal, replicate 1 = 2.41e7; resting calcium signal, replicate 2 = 2.20e7; inactive.
yip3 [DRSC04724] showed calcium entry signal, replicate 1 = 1.90e7; calcium entry signal, replicate 2 = 2.47e7; resting calcium signal, replicate 1 = 1.22e7; resting calcium signal, replicate 2 = 1.14e7; inactive.
After knock-down of l(2)k09848 [DRSC04894], the screen gave calcium entry signal, replicate 1 = 2.43e7; resting calcium signal, replicate 1 = 1.47e7; inactive.
Prosbeta5R2 [DRSC01617] showed calcium entry signal, replicate 1 = 3.14e7; calcium entry signal, replicate 2 = 3.40e7; resting calcium signal, replicate 1 = 1.74e7; resting calcium signal, replicate 2 = 1.74e7; inactive.
With knock-down of dpr9 [DRSC14534] the results were calcium entry signal, replicate 1 = 4.00e7; calcium entry signal, replicate 2 = 4.55e7; resting calcium signal, replicate 1 = 1.67e7; resting calcium signal, replicate 2 = 1.93e7; inactive.
Knock-down of dpr9 [DRSC14985] resulted in: calcium entry signal, replicate 1 = 3.74e7; calcium entry signal, replicate 2 = 5.33e7; resting calcium signal, replicate 1 = 1.84e7; resting calcium signal, replicate 2 = 6.83e7; inactive.
Against dpr9 [DRSC14986], the values are calcium entry signal, replicate 1 = 2.63e7; calcium entry signal, replicate 2 = 5.02e7; resting calcium signal, replicate 1 = 1.47e7; resting calcium signal, replicate 2 = 6.88e7; inactive.
edl [DRSC06516] scored calcium entry signal, replicate 1 = 4.52e7; calcium entry signal, replicate 2 = 4.06e7; resting calcium signal, replicate 1 = 2.06e7; resting calcium signal, replicate 2 = 1.97e7; inactive.
Depletion of CG15577 [DRSC18065] came out at: calcium entry signal, replicate 1 = 3.36e7; calcium entry signal, replicate 2 = 4.58e7; resting calcium signal, replicate 1 = 1.51e7; resting calcium signal, replicate 2 = 1.99e7; inactive.
For CG9777 [DRSC20208], the values are calcium entry signal, replicate 1 = 2.85e7; calcium entry signal, replicate 2 = 2.92e7; resting calcium signal, replicate 1 = 1.50e7; resting calcium signal, replicate 2 = 1.31e7; inactive.
Against capt [DRSC00676], the entry reads calcium entry signal, replicate 1 = 3.64e7; calcium entry signal, replicate 2 = 3.39e7; resting calcium signal, replicate 1 = 1.65e7; resting calcium signal, replicate 2 = 1.47e7; inactive.
Against capt [DRSC00806], the values are calcium entry signal, replicate 1 = 3.68e7; calcium entry signal, replicate 2 = 3.36e7; resting calcium signal, replicate 1 = 1.82e7; resting calcium signal, replicate 2 = 1.58e7; inactive.
After knock-down of Srrm234 [DRSC07955] the results were calcium entry signal, replicate 1 = 3.71e7; calcium entry signal, replicate 2 = 3.02e7; resting calcium signal, replicate 1 = 1.67e7; resting calcium signal, replicate 2 = 1.26e7; inactive.
Depletion of Srrm234 [DRSC08606] came out at: calcium entry signal, replicate 1 = 3.91e7; calcium entry signal, replicate 2 = 3.73e7; resting calcium signal, replicate 1 = 1.69e7; resting calcium signal, replicate 2 = 1.87e7; inactive.
For Su(dx) [DRSC00791], the values are calcium entry signal, replicate 1 = 3.99e7; resting calcium signal, replicate 1 = 2.50e7; inactive.
Knock-down of Or92a [DRSC16771] came out at: calcium entry signal, replicate 1 = 3.50e7; calcium entry signal, replicate 2 = 4.11e7; resting calcium signal, replicate 1 = 4.83e7; resting calcium signal, replicate 2 = 1.80e7; inactive.
Silencing of CG8851 [DRSC00718] gave: calcium entry signal, replicate 1 = 3.30e7; calcium entry signal, replicate 2 = 3.86e7; resting calcium signal, replicate 1 = 1.64e7; resting calcium signal, replicate 2 = 1.85e7; inactive.

2 entries already listed, ordered by “calcium entry signal, replicate 1”, lowest first.
CG9777 [DRSC20208]: calcium entry signal, replicate 1 = 2.85e7; calcium entry signal, replicate 2 = 2.92e7; resting calcium signal, replicate 1 = 1.50e7; resting calcium signal, replicate 2 = 1.31e7; Call = inactive
capt [DRSC00676]: calcium entry signal, replicate 1 = 3.64e7; calcium entry signal, replicate 2 = 3.39e7; resting calcium signal, replicate 1 = 1.65e7; resting calcium signal, replicate 2 = 1.47e7; Call = inactive
